In all, about 31,000 sequences went through this assay and about 1,400 (4.5%) were called active.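 The calls were made as follows: active = median seed-adjusted z-score above 1 or below -1; inactive = the rest.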 This is one part of the list.

The nature of this test: Novel Modifiers of Survival Motor Neuron (SMN) Protein: Gene Identification via Genome-wide siRNA Screen.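 Also: luminescence tracks full-length SMN protein made from the SMN2 reporter.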 The note with it: HEK293T SMN2-luciferase reporter, siRNA knockdown, 72 h; actives lie on both sides. In a few lines:
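Luciferase signal, proportional to full-length SMN made from an SMN2 cDNA reporter in stable HEK293T cells, was read 72 h after siRNA reverse transfection. Values were expressed as MAD scores after non-targeting-control normalization and log10 conversion; seed analysis flagged off-targets.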
For orientation: Reporter assays use an easily measured gene product as a stand-in for the process of interest.
For GAACAAUUUUGCAAGAGUUTT against CPT2, the median seed-adjusted z-score is inactive: 0.542. Take GCACGAAAAUCCCGACAUATT against DDX54: the median seed-adjusted z-score is inactive: 0. Turning to GGAUGAUGCAAAGGUCAAATT against SREBF2, the median seed-adjusted z-score was inactive: -0.606.

As for GGAUCAGUUUGACAGUUUUTT against RNPEP, the median seed-adjusted z-score is inactive: -0.236.

With CCUCAUCCAUGUAAGGUUATT against MYOG, the median seed-adjusted z-score is inactive: -0.0972. Consider GGAUGUAGUUUUUGGAACATT against NHLRC2, for which the median seed-adjusted z-score was inactive: 0.548. Next, CCUUCGACCUCAAGAGACATT against OVOL1: inactive: -0.0414. On to GAGAGAAACUGUCAGAGUATT against RNF185, for which the median seed-adjusted z-score was inactive: -0.388. Next, AGAUGAUCGAGAAAACCAATT against POLD1: inactive: -0.715; GCCUCACUGUACAAGUAUATT against FMO1: inactive: 0.323; CAAUUUGACUAUACUUAUUTT against CCR1: inactive: 0.

For the sequence GUUCUUCCCUGGAUUUACATT against TMPRSS13, the median seed-adjusted z-score is inactive: 0.0584. As for GGAGCGAUUUGCUGGUGUATT against RPS16, the figure is inactive: 0. In the case of AACAUUACUUGGUCUCAAATT against ICAM2, the median seed-adjusted z-score was inactive: 0.269.

Regarding GAAUGUCAUCCGUAUUUCATT against AKR1C3, the median seed-adjusted z-score is inactive: -0.00538.

Take AGGUCCUACGCUUCCAAAATT against CYP2D6: the median seed-adjusted z-score is inactive: -0.0488.

On to GCUCACUUCCGGAAUACAATT against KMO, for which the median seed-adjusted z-score was inactive: 0.443. Next, CCAUUGUUCCAGACUUCUUTT against CMBL: inactive: 0. Regarding GGCUAUGCUUGUGAAGUUATT against NKRF, the median seed-adjusted z-score is inactive: -0.0368. As for GGCUUAUGAGGAUAAAAAUTT against GLO1, the figure is inactive: -0.0827. As for GGCUGUAGGAGUUAGUCAATT against STAU1, the figure is inactive: -0.143; as for UCAUCUUUGUCAUCGUGUATT against SMO, inactive: -0.457. As for GCCUAAGCAACGUAGCUUATT against SMC3, the figure is inactive: 0.507; as for GCGUCAGGUGGAUACUAAATT against NT5C2, inactive: -0.687. On to GGAGCUUUGUCAAGAAGAUTT against FKBPL, for which the median seed-adjusted z-score was active: -1.11.

As for GGCUUUCUCUCAGACAACUTT against SSTR1, the median seed-adjusted z-score was inactive: 0.285. Turning to GAGUCACAAAAAGUCCAGATT against WFDC12, the median seed-adjusted z-score is inactive: 0.

For the sequence CGACAAGAUCAAAUACCCATT against LZTR1, the median seed-adjusted z-score was inactive: 0.293.

For the sequence GAUCCGCGUUGGAACCAAUTT against RCOR2, the median seed-adjusted z-score was inactive: -0.129.

As to GGAAUGACUGAAUCUGAUATT against FXR1, the median seed-adjusted z-score was inactive: 0.131.

Regarding CGCUAUACCUACCAGCAAATT against DNAJB12, the median seed-adjusted z-score is inactive: 0. As for CAAGGGACCUUAUAGGAGATT against CDC25A, the figure is inactive: 0.235; as for GCCUUGCUGUUAAAGGGCATT against PARP2, inactive: -0.366; as for GGGACGUGUUUAUCAAGGATT against OSBPL5, inactive: 0.638. As for AGGUGUCUGAGAUUAAGAATT against FOXRED1, the figure is inactive: 0.447; as for AGCUUACGGUUCUGAAGGATT against BRUNOL4, inactive: 0.

For the sequence CUGUGACACUGAGUCCCGATT against VAX2, the median seed-adjusted z-score is inactive: -0.71. Next, CAGAAGAAGUGUUUCAGAATT against BCR: inactive: 0.143; CAACGGUAUGAAUAACAAUTT against PIK3R1: inactive: 0.196; AGCUACGAGUUCAUGCGGATT against PLEKHJ1: inactive: -0.213.

In the case of GAUCGAAACCAUAAUAGAUTT against BAZ1B, the median seed-adjusted z-score was inactive: 0.00593. Next, GCACUUAUGCUGAUGAAGATT against ZNF398: inactive: 0.119; GGACCCUGAGAAAACCAUATT against FKBP10: inactive: 0.229; GGCUCUGUUUAAUCGACUATT against RBPJ: inactive: -0.452. As for CAGCAGUGAUUAUGAGUGUTT against ZNF671, the figure is inactive: -0.0551; as for CAUUCAUCAUCCACCCAGATT against MUPCDH, inactive: -0.329. As for ACAUUUUUACCAUCAGUAATT against TRPM2, the figure is inactive: 0.226; as for AUGACGACAUUGACUCUUATT against RAD9A, inactive: -0.0564; as for CGAAAAUUGAUGCAUGUGATT against NDUFB5, inactive: -0.122.

Turning to GCAAGCAAGUCCUAACAUUTT against RAB5A, the median seed-adjusted z-score was inactive: 0.244. GGCAGAAAGUCCAAAGGAATT against FXYD1: the median seed-adjusted z-score is inactive: 0.276. As to CACUUUGUCUGUGACCGAATT against UQCRC1, the median seed-adjusted z-score was inactive: -0.284. Next, GCAGAUCCGACAGAACUGATT against P2RY2: inactive: 0.119. Consider GAACGAUUCUUAACGUGGATT against NARS, for which the median seed-adjusted z-score was inactive: -0.361. Next, GAAAAGACAUGGAGUUAUUTT against DYRK3: inactive: 0.358. As for CCCUAGAGCCUGACUUUAATT against DAG1, the figure is inactive: -0.104; as for GUAUCUUGAUAGUACCCAATT against NFE2L3, inactive: 0.118. Turning to GACCUGCUCUUACAUUUAATT against IL13, the median seed-adjusted z-score was inactive: 0.435.

On to AGACAGACGAAGAAACUAATT against POLR3D, for which the median seed-adjusted z-score is inactive: -0.434. For CCAAAGCUUUCCUAAUGAATT against RAB32, the median seed-adjusted z-score is inactive: -0.112. As for GAAUCCACCUUCGACCUGATT against HMX1, the figure is active: 1.3. On to AGUUCAGGGUAUUUAAUAATT against ITLN1, for which the median seed-adjusted z-score was inactive: 0.23. As for CGACACUGCCGAAUGGAAATT against SRCRB4D, the figure is inactive: -0.0568; as for CCACGUAAGCAAAAGAGCATT against GAB1, inactive: 0.373. As for GGGACAAGCUUGACAAGGUTT against TRIM62, the figure is inactive: -0.000231; as for GGAGGAUCACCGACGUGAUTT against CTRB1, inactive: -0.214; as for AACUAGUAAGGCUCAGUAATT against AKAP7, inactive: 0.37. As for GAUCUUUCCUGGUCCAAAATT against GABBR1, the figure is inactive: -0.0526; as for CGGUGUCAGUCAUCGAUGATT against ATP6V0D1, inactive: -0.242.

These data come from PubChem BioAssay AID1347426 (Functional Genomics Laboratory (NCATS/FGL), 2020).
